Experiment: Bottom-gate top contact OFET device characterization
Description: Bottom-gate top contact OFETs were fabricated using compounds of the present teachings as the semiconductor layer. Prime grade n-doped silicon wafers (100) having 300 nm of thermally grown oxide (Process Specialties Inc.) were used as device substrates. These were rinsed with water, methanol, and acetone before film deposition. Trimethylsilyl functionalization of the Si/SiO2 surface was carried out by exposing the silicon wafers to hexamethyldisilazane (HMDS) vapor at room temperature in a closed container under nitrogen overnight. Thin films of mono-bromo mono-cyano perylenes were prepared by vapor deposition and spin-coating, and thin films of the dimeric perylenes were prepared by spin coating only. Different solvents and solvent mixtures can be used for semiconductor film deposition. The gate region was accessed by an ohmic contact to the Si substrate, and the gold source and drain contacts were prepared by vapor deposition through a shadow mask onto the semiconductor layer.
All electrical measurements were performed in ambient atmosphere. To allow comparison with other organic FETs, mobilities (μ) were calculated by standard field effect transistor equations. In traditional metal-insulator-semiconductor FETs (MISFETs), there is typically a linear and saturated regime in the IDS vs VDS curves at different VG (where IDS is the source-drain saturation current, VDS is the potential between the source and drain, and VG is the gate voltage). At large VDS, the current saturates and is given by: (IDS)sat=(WCi/2L)μ(VG−Vt)^2 (1) where L and W are the device channel length and width, respectively, Ci is the capacitance of the oxide insulator (˜10 nF/cm^2 for ˜300 nm SiO2), and Vt is the threshold voltage. Mobilities (μ) were calculated in the saturation regime by rearranging equation (1): μsat=(2IDSL)/[WCi(VG−Vt)^2] (2) The threshold voltage (Vt) can be estimated as the X-axis intercept of the linear section of the plot of VG versus (IDS)^1/2 (at VSD=−100 V).
It was observed that the dimeric perylenes tested provided solutions with an unexpectedly wide range of viscosity, which facilitated the device fabrication process.

[1] = spin-coating from chloroform/dichlorobenzene (98:2, w/w) solution, about 8 mg/mL, ambient atmosphere (Table 3)
[2] = film by vacuum deposition, ambient atmosphere (Table 2a)
[3] = film by vacuum deposition, tested in ambient atmosphere (Table 2a)
[4] = spin-coating from chloroform solution, about 8 mg/mL, ambient atmosphere (Table 2b)

SMILES | Current On/Off Ratio [1] | Mobility [1] [cm^2/Vs] | VTH [1] [V] | Current On/Off Ratio [2] | Current On/Off Ratio (0 V) [2] | Mobility [3] [cm^2/Vs] | Current On/Off Ratio [4] | Current On/Off Ratio (0 V) [4] | Mobility [4] [cm^2/Vs]
CCCCC(C)N1C(=O)c2ccc3c4c(-c5ccc(-c6ccc(-c7cc8c9c(ccc%10c%11c(C#N)cc%12c%13c(ccc(c7c9%10)c%13%11)C(=O)N(C(C)CCCC)C%12=O)C(=O)N(C(C)CCCC)C8=O)s6)s5)cc5c6c(ccc(c7c(C#N)cc(c2c37)C1=O)c64)C(=O)N(C(C)CCCC)C5=O (stereo not drawn) [BPDI(1MP)-BT, 5,5′-bis-[N,N′-bis(1-methylpentyl)-1-cyanoperylene-3,4:9,10-bis(dicarboxiimide)-7-yl]-2,2′-bithiophene] | 3.3E+04 | 2.6E−04 | 0 | – | – | – | – | – | –
CCCCC(CC)CN1C(=O)c2ccc3c4c(-c5ccc(-c6ccc(-c7cc8c9c(ccc%10c%11c(C#N)cc%12c%13c(ccc(c7c9%10)c%13%11)C(=O)N(CC(CC)CCCC)C%12=O)C(=O)N(CC(CC)CCCC)C8=O)s6)s5)cc5c6c(ccc(c7c(C#N)cc(c2c37)C1=O)c64)C(=O)N(CC(CC)CCCC)C5=O (stereo not drawn) [BPDI(2EH)-BT, 5,5′-bis-[N,N′-bis(2-ethylhexyl)-1-cyanoperylene-3,4:9,10-bis(dicarboxiimide)-7-yl]-2,2′-bithiophene] | 2.4E+06 | 0.05 | −15 | – | – | – | – | – | –
CCCCCCCCN1C(=O)c2ccc3c4c(-c5ccc(-c6ccc(-c7cc8c9c(ccc%10c%11c(C#N)cc%12c%13c(ccc(c7c9%10)c%13%11)C(=O)N(CCCCCCCC)C%12=O)C(=O)N(CCCCCCCC)C8=O)s6)s5)cc5c6c(ccc(c7c(C#N)cc(c2c37)C1=O)c64)C(=O)N(CCCCCCCC)C5=O [BPDI(8)-BT, 5,5′-bis-[N,N′-bisoctyl-1-cyanoperylene-3,4:9,10-bis(dicarboxiimide)-7-yl]-2,2′-bithiophene] | 2.4E+04 | 8.7E−03 | −5 | – | – | – | – | – | –
CCCCC(C)N1C(=O)c2ccc3c4c(C#N)cc5c6c(ccc(c7c(Br)cc(c2c37)C1=O)c64)C(=O)N(C(C)CCCC)C5=O (stereo not drawn) [PDI(1MP)BrCN, N,N′-bis(1-methylpentyl)-1-bromo-7-cyanoperylene-3,4:9,10-bis(dicarboxiimide)] | – | – | – | 1.7E+04 | 1.7E+04 | 8.78E−04 | 1.1E+04 | 1.1E+04 | 5.13E−03
CCCCC(CC)CN1C(=O)c2ccc3c4c(C#N)cc5c6c(ccc(c7c(Br)cc(c2c37)C1=O)c64)C(=O)N(CC(CC)CCCC)C5=O (stereo not drawn) [PDI(2EH)BrCN, N,N′-bis(2-ethylhexyl)-1-bromo-7-cyanoperylene-3,4:9,10-bis(dicarboxiimide)] | – | – | – | 7.6E+03 | 6.7E+03 | 3.03E−03 | 1.3E+04 | 1.3E+04 | 3.90E−04
CCCCCCCCN1C(=O)c2ccc3c4c(C#N)cc5c6c(ccc(c7c(Br)cc(c2c37)C1=O)c64)C(=O)N(CCCCCCCC)C5=O [PDI(8)BrCN, N,N′-bisoctyl-1-bromo-7-cyanoperylene-3,4:9,10-bis(dicarboxiimide)] | – | – | – | 1.8E+05 | 1.6E+05 | 1.78E−02 | 2.8E+03 | 2.8E+03 | 1.10E−04
